Laboratory results from paper PMC10846047.
These are yes or no findings as the source states them, for the method shown. In cells and extracts the contact can be indirect. Here binding means that the protein was enriched with, or labelled near, the bait; the list need not be complete.

B1: FBXO2 (protein, UniProt Q9UK22 1-296)
chain: MDGDGDPESVGQPEEASPEEQPEEASAEEERPEDQQEEEAAAAAAYLDELPEPLLLRVLAALPAAELVQACRLVCLRWKELVDGAPLWLLKCQQEGLVPEGGVEEERDHWQQFYFLSKRRRNLLRNPCGEEDLEGWCDVEHGGDGWRVEELPGDSGVEFTHDESVKKYFASSFEWCRKAQVIDLQAEGYWEELLDTTQPAIVVKDWYSGRSDAGCLYELTVKLLSEHENVLAEFSSGQVAVPQDSDGGGWMEISHTFTDYGPGVRFVRFEHGGQDSVYWKGWFGARVTNSSVWVEP
B2: osteosarcoma amplified 9 (OS9) (protein, UniProt Q13438 26-667)
chain: GGVGSLNLEELSEMRYGIEILPLPVMGGQSQSSDVVIVSSKYKQRYECRLPAGAIHFQREREEETPAYQGPGIPELLSPMRDAPCLLKTKDWWTYEFCYGRHIQQYHMEDSEIKGEVLYLGYYQSAFDWDDETAKASKQHRLKRYHSQTYGNGSKCDLNGRPREAEVRFLCDEGAGISGDYIDRVDEPLSCSYVLTIRTPRLCPHPLLRPPPSAAPQAILCHPSLQPEEYMAYVQRQADSKQYGDKIIEELQDLGPQVWSETKSGVAPQKMAGASPTKDDSKDSDFWKMLNEPEDQAPGGEEVPAEEQDPSPEAADSASGAPNDFQNNVQVKVIRSPADLIRFIEELKGGTKKGKPNIGQEQPVDDAAEVPQREPEKERGDPERQREMEEEEDEDEDEDEDEDERQLLGEFEKELEGILLPSDRDRLRSEVKAGMERELENIIQETEKELDPDGLKKESERDRAMLALTSTLNKLIKRLEEKQSPELVKKHKKKRVVPKKPPPSPQPTEEDPEHRVRVRVTKLRLGGPNQDLTVLEMKRENPQLKQIEGLVKELLEREGLTAAGKIEIKIVRPWAEGTEEGARWLTDEDTRNLKEIFFNILVPGAEEAQKERQRQKELESNYRRVWGSPGGEGTGDLDEFDF
B3: transmembrane protein 43 (TMEM43) (protein, UniProt Q9BTV4 1-400)
chain: MAANYSSTSTRREHVKVKTSSQPGFLERLSETSGGMFVGLMAFLLSFYLIFTNEGRALKTATSLAEGLSLVVSPDSIHSVAPENEGRLVHIIGALRTSKLLSDPNYGVHLPAVKLRRHVEMYQWVETEESREYTEDGQVKKETRYSYNTEWRSEIINSKNFDREIGHKNPSAMAVESFMATAPFVQIGRFFLSSGLIDKVDNFKSLSLSKLEDPHVDIIRRGDFFYHSENPKYPEVGDLRVSFSYAGLSGDDPDLGPAHVVTVIARQRGDQLVPFSTKSGDTLLLLHHGDFSAEEVFHRELRSNSMKTWGLRAAGWMAMFMGLNLMTRILYTLVDWFPVFRDLVNIGLKAFAFCVATSLTLLTVAAGWLFYRPLWALLIAGLALVPILVARTRVPAKKLE
B4: HM13 (protein, UniProt Q8TCT9 1-377)
chain: MDSALSDPHNGSAEAGGPTNSTTRPPSTPEGIALAYGSLLLMALLPIFFGALRSVRCARGKNASDMPETITSRDAARFPIIASCTLLGLYLFFKIFSQEYINLLLSMYFFVLGILALSHTISPFMNKFFPASFPNRQYQLLFTQGSGENKEEIINYEFDTKDLVCLGLSSIVGVWYLLRKHWIANNLFGLAFSLNGVELLHLNNVSTGCILLGGLFIYDVFWVFGTNVMVTVAKSFEAPIKLVFPQDLLEKGLEANNFAMLGLGDVVIPGIFIALLLRFDISLKKNTHTYFYTSFAAYIFGLGLTIFIMHIFKHAQPALLYLVPACIGFPVLVALAKGEVTEMFSYEESNPKDPAAVTESKEGTEASASKGLEKKEK
B5: PREB (protein, UniProt Q9HCU5 1-417)
chain: MGRRRAPELYRAPFPLYALQVDPSTGLLIAAGGGGAAKTGIKNGVHFLQLELINGRLSASLLHSHDTETRATMNLALAGDILAAGQDAHCQLLRFQAHQQQGNKAEKAGSKEQGPRQRKGAAPAEKKCGAETQHEGLELRVENLQAVQTDFSSDPLQKVVCFNHDNTLLATGGTDGYVRVWKVPSLEKVLEFKAHEGEIEDLALGPDGKLVTVGRDLKASVWQKDQLVTQLHWQENGPTFSSTPYRYQACRFGQVPDQPAGLRLFTVQIPHKRLRQPPPCYLTAWDGSNFLPLRTKSCGHEVVSCLDVSESGTFLGLGTVTGSVAIYIAFSLQCLYYVREAHGIVVTDVAFLPEKGRGPELLGSHETALFSVAVDSRCQLHLLPSRRSVPVWLLLLLCVGLIIVTILLLQSAFPGFL
B6: SPCS3 (protein, UniProt P61009 1-180)
chain: MNTVLSRANSLFAFSLSVMAALTFGCFITTAFKDRSVPVRLHVSRIMLKNVEDFTGPRERSDLGFITFDITADLENIFDWNVKQLFLYLSAEYSTKNNALNQVVLWDKIVLRGDNPKLLLKDMKTKYFFFDDGNGLKGNRNVTLTLSWNVVPNAGILPLVTGSGHVSVPFPDTYEITKSY
B7: calmegin (CLGN) (protein, UniProt O14967 20-610)
chain: EFMDDDVETEDFEENSEEIDVNESELSSEIKYKTPQPIGEVYFAETFDSGRLAGWVLSKAKKDDMDEEISIYDGRWEIEELKENQVPGDRGLVLKSRAKHHAISAVLAKPFIFADKPLIVQYEVNFQDGIDCGGAYIKLLADTDDLILENFYDKTSYIIMFGPDKCGEDYKLHFIFRHKHPKTGVFEEKHAKPPDVDLKKFFTDRKTHLYTLVMNPDDTFEVLVDQTVVNKGSLLEDVVPPIKPPKEIEDPNDKKPEEWDERAKIPDPSAVKPEDWDESEPAQIEDSSVVKPAGWLDDEPKFIPDPNAEKPDDWNEDTDGEWEAPQILNPACRIGCGEWKPPMIDNPKYKGVWRPPLVDNPNYQGIWSPRKIPNPDYFEDDHPFLLTSFSALGLELWSMTSDIYFDNFIICSEKEVADHWAADGWRWKIMIANANKPGVLKQLMAAAEGHPWLWLIYLVTAGVPIALITSFCWPRKVKKKHKDTEYKKTDICIPQTKGVLEQEEKEEKAALEKPMDLEEEKKQNDGEMLEKEEESEPEEKSEEEIEIIEGQEESNQSNKSGSEDEMKEADESTGSGDGPIKSVRKRRVRKD

Tests used:
[1] = molecular target: HA-tagged envelope protein 2 (HA-E2) of HCV Jc1 (hepatitis C virus Jc1 (genotype 2a)); test: affinity purification with mass spectrometry; anti-HA agarose, overnight 4 °C, on pre-cleared lysates (50 mM HEPES pH 7.4, 150 mM NaCl, 10% glycerol, 1% NP-40, 1 mM CaCl2) of Huh-7.5 cells 48 h after transfection with HA-tagged Jc1 RNA of parental background (HA-E2, HAHA-p7, HA-NS4B Q31R) or of Huh-7.5/HA-ApoE cells with Jc1; label-free LC-MS/MS against untagged controls; two data sets for HA-E2
[2] = molecular target: HA-tagged envelope protein 2 (HA-E2) of HCV Jc1 (hepatitis C virus Jc1 (genotype 2a)); test: affinity purification with mass spectrometry; as a1, cells replicating the HA-E2 virus with core residues 69-72 changed to alanines (core C69-72A); control: the cognate untagged mutant virus; second data set
[3] = molecular target: HA-tagged envelope protein 2 (HA-E2) of HCV Jc1 (hepatitis C virus Jc1 (genotype 2a)); test: affinity purification with mass spectrometry; as a1, cells replicating the HA-E2 virus with the core P138A P143A double mutation (core DP); control: the cognate untagged mutant virus; second data set
[4] = molecular target: double HA-epitope tagged p7 (HAHA-p7) of HCV Jc1 (hepatitis C virus Jc1 (genotype 2a)); test: affinity purification with mass spectrometry; anti-HA agarose, overnight 4 °C, on pre-cleared lysates (50 mM HEPES pH 7.4, 150 mM NaCl, 10% glycerol, 1% NP-40, 1 mM CaCl2) of Huh-7.5 cells 48 h after transfection with HA-tagged Jc1 RNA of parental background (HA-E2, HAHA-p7, HA-NS4B Q31R) or of Huh-7.5/HA-ApoE cells with Jc1; label-free LC-MS/MS against untagged controls; two data sets for HA-E2
[5] = molecular target: HA-tagged envelope protein 2 (HA-E2) of HCV Jc1 (hepatitis C virus Jc1 (genotype 2a)); test: affinity purification with mass spectrometry; as a1, cells replicating the HA-E2 virus with the E1 K179Q mutation; control: the cognate untagged mutant virus; second data set

Binder	binding [1]	binding [2]	other results
B1	binds	–	–
B2	–	binds	binding [3]: binds
B3	binds	–	–
B4	binds	–	–
B5	binds	–	binding [4]: binds
B6	binds	binds	binding [5]: binds
B7	binds	binds	–
